What was measured:
NCI-H522 cells = experiment: Cell viability assay; conditions: Homo sapiens, NCI-H522, 72 h, read-out: IC50 (μM) NCI-H522
HCT-116 cells = experiment: Cell viability assay; conditions: Homo sapiens, HCT-116, 72 h, read-out: IC50 (μM) HCT-116

IC50 (NCI-H522 cells): 1.72 ± 0.28 µM
IC50 (HCT-116 cells): 1.31 ± 0.08 µM
Structure (SMILES): O=C(CCCCCCC(=O)Nc1ccccc1)NO [SAHA, reference compound]

From article PMC10408038 (Journal of medicinal chemistry, 2022)
